# Measured values taken from PubChem BioAssay AID2685 (National Center for Advancing Translational Sciences (NCATS), 2010).
# The list shows a part of the results. Shown are side measurements of this screen, not its main read-out; they come without a call. Compounds called inactive in the main read-out are mostly missing here. Words in brackets tell the shape of the fitted curve; partial curves, single points and poor fits give uncertain potencies.
# Assay: qHTS Assay for Lipid Storage Modulators in Drosophila S3 Cells;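 as to cell number change: cells counted by Cell Tracker Red CMTPX staining in the red channel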
# Conditions: BODIPY lipid droplet fluorescence, 18-24 h; for cell number change: measured here: cell count max response, cells fed with added oleic acid
# How it was run: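 Drosophila S3 cells got compounds at several concentrations plus oleic acid (400 uM solution). Laser-scanning cytometry with 488 nm excitation read lipid droplets at 500-530 nm and cells at 575-640 nm. Percent activity was relative to 20 uM Triacsin C.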
# [1] = measured here: lipid fluorescence (Fed channel) AC50, cells fed with added oleic acid
# [2] = measured here: cell number channel AC50, cells fed with added oleic acid
Compound,cell number change,AC50 [1],AC50 [2]
CCOC(=O)CC1=C(C#N)C(c2cccnc2)C(C(=O)OCC)=C(N)O1 (configuration not stated),-7.64%,"0.116 µM [rising, full curve, poor fit]",
CCn1ccnc1CN(C)C(=O)c1ccc(OC2CCN(CCc3ccccc3)CC2)cc1,,"29.1 µM [rising, single point]",
CC1CCN(C(=O)CSc2nnc(Cc3cccn3C)n2-c2ccc(F)cc2)CC1,21.9%,"0.58 µM [falling, single point]",
O=c1oc(-c2ccccc2Cl)nc2ccsc12,-9.89%,"29.1 µM [rising, single point]",
CC(=O)Nc1nnc(C2=COCCO2)o1,,"2.91 µM [rising, single point]",
CN(C)C(CNC(=O)CCc1nc2cc(Cl)ccc2n(Cc2ccccc2)c1=O)c1ccccc1 (configuration not stated),78.8%,,"9.2 µM [rising, partial curve]"
CC(=O)c1ccc(N2CCN(C(=O)Nc3ccc(F)cc3)CC2)cc1,14.9%,"29.1 µM [rising, single point]",
CN(C)c1ccc(/C=N\NC(=O)CC#N)cc1,3.51%,"6.51 µM [falling, partial curve, poor fit]","0.651 µM [falling, partial curve, poor fit]"
Nc1c(NCCC2=CCCCC2)c(=O)[nH]c(=O)n1Cc1ccccc1,-16.6%,"0.291 µM [falling, full curve, poor fit]","0.13 µM [falling, full curve, poor fit]"
O=C(Nc1ccc2[nH]c(=O)[nH]c2c1)c1ccc(Br)o1,22.6%,,
CCCOc1ccc(CSc2nc3ccccc3[nH]2)cc1,-36.8%,"10.3 µM [falling, partial curve]","6.51 µM [falling, partial curve]"
COc1ccc(NC(=O)c2cc(-c3ccc(C)c(C)c3O)n[nH]2)cc1Cl,-31.4%,"9.2 µM [falling, partial curve]","29.1 µM [falling, single point]"
COc1ccc(OC)c(NC(=O)CCC(=O)Nc2nnc(C(C)C)s2)c1,43.2%,,"16.4 µM [rising, single point]"
CCCC(=O)N1CCN(c2ccc(NC(=O)c3cc4ccccc4o3)cc2Cl)CC1,-41.9%,"29.1 µM [falling, single point]","29.1 µM [falling, single point]"
CC(=O)Nc1ccc(NC(=O)C(C)OC(=O)c2cc(S(=O)(=O)N3CCOCC3)ccc2Cl)cc1 (configuration not stated),-24.9%,"23.1 µM [falling, partial curve, poor fit]",
CCOc1ccccc1NC(=O)Nc1cc(OC)ccc1OC,,"2.59 µM [rising, partial curve]","0.731 µM [rising, full curve]"
Cc1ccc(Cl)cc1N1CCN(S(=O)(=O)c2ccc3c(c2)NC(=O)C(C)C(=O)N3)CC1 (configuration not stated),32.3%,,"29.1 µM [rising, single point]"
COc1ccc(-c2[nH]ncc2/C=N/NC(=O)c2ccncc2)c(OC)c1,11.2%,,"0.0517 µM [rising, full curve, poor fit]"
O=S(=O)(c1ccc(F)c(F)c1F)N1CCN(C(=S)NCc2ccccc2)CC1,,,"0.517 µM [rising, single point]"
Cc1ccccc1C(=O)O/N=C/c1c(N2CCOCC2)n(C)c2ccccc12,-3.83%,"0.291 µM [rising, full curve, poor fit]","0.164 µM [rising, full curve, poor fit]"

Compound,cell number change,AC50 [1],AC50 [2]
Cc1ccc(CNC(=O)CCS(=O)(=O)Cc2ccc(C)cc2)cc1,-15.3%,,
Cc1noc(C)c1C(=O)OCC(=O)NCCC1=CCCCC1,20.5%,"0.103 µM [falling, full curve, poor fit]",
CCC(=O)Nc1ccc(C(=O)NNC(=O)c2ccc(Cl)cc2)cc1,11.6%,"0.00461 µM [falling, full curve, poor fit]",
CCN1CCN(c2ccc(S(=O)(=O)N3CCOCC3)cc2NC(=O)/C=C/c2ccc(C)cc2)CC1,-0.878%,"0.651 µM [falling, single point]",
CC(=O)c1cccc(NC(=S)NC(=O)c2ccccc2Cl)c1,6.51%,"0.164 µM [rising, full curve, poor fit]",
COC(=O)c1ccc(NC(=O)Cn2nnc(-c3cccs3)n2)cc1,-12.1%,"0.326 µM [falling, full curve, poor fit]",
Cc1ccc(NC(=O)c2nc[nH]c2C(=O)N2CCc3ccccc3C2)cc1,-30.4%,,"4.61 µM [falling, single point]"
Cn1cc(CNC(=O)C2CCC(=O)N(Cc3cccc(C(F)(F)F)c3)C2)cn1 (configuration not stated),-15%,"6.51 µM [rising, partial curve, poor fit]",
COc1cc(C)ccc1OCCOCCOc1ccccc1Br,-17.2%,"20.6 µM [falling, single point]",
COc1cc(NC(=O)CCC2CCCC2)cc(-n2cnnn2)c1,-0.365%,"0.092 µM [rising, full curve, poor fit]",
COCCNC(=O)C(c1ccc(O)cc1)N(Cc1ccco1)C(=O)CCC(=O)Nc1ccccn1 (configuration not stated),-19%,,
CC1(C)Cc2c(C#N)c(OCC(=O)c3ccc(Cl)cc3)nc(-c3ccco3)c2CO1,,"0.291 µM [rising, partial curve, poor fit]","0.259 µM [rising, partial curve, poor fit]"
CCOC(=O)c1ccccc1NC(=O)CN(c1ccccc1C)S(C)(=O)=O,,"4.61 µM [rising, single point]",
O=C(CN1N=C(c2ccccc2)CCC1=O)NCc1cccs1,39.4%,"29.1 µM [rising, single point]","20.6 µM [rising, single point]"
Cc1cc(Cl)ccc1NC(=O)NC1CCN(S(=O)(=O)c2ccc(F)cc2)CC1,,"0.0291 µM [rising, full curve, poor fit]","0.092 µM [rising, partial curve]"
CSC1=N/C(=C\c2ccc(Br)o2)C(=O)S1,,"0.184 µM [falling, full curve, poor fit]",
CC1=C(C(=O)N2CCOCC2)C(c2cccs2)NC(=O)N1 (configuration not stated),-17.1%,"0.0651 µM [rising, full curve, poor fit]",
O=C(Nc1ccc(NC(=O)c2cccs2)cc1)c1ccccc1,,"5.17 µM [falling, full curve]","6.51 µM [falling, single point]"
CCc1ccc(OC(C)C(=O)N(Cc2ccco2)C2CCS(=O)(=O)C2)cc1 (configuration not stated),24.8%,,
CCc1ccc2[nH]c(=O)c(CN(Cc3ccccc3)C(=O)Nc3ccccc3OC)cc2c1,26.8%,,

Compound,cell number change,AC50 [1],AC50 [2]
CC(C)CNC(=O)NC(=O)COc1ncnc2sccc12,19.3%,,
COC(=O)c1ccc(CN2C(=O)c3ccccc3C2=O)o1,5.22%,"29.1 µM [rising, single point]",
Cc1ccc(C2CC(c3cccc(C)c3)n3nc(N)nc3N2)cc1 (configuration not stated),0.711%,,
COC(=O)c1sc(-c2ccc(C(C)(C)C)cc2)cc1NC(=O)/C=C/C(=O)O,-30.4%,"0.651 µM [falling, full curve, poor fit]","0.82 µM [falling, full curve]"
CCCc1ncc(C(O)c2cccc(OC)c2)n1C (configuration not stated),13.4%,,
Cc1ccc(S(=O)(=O)CCc2nnc(NC(=O)c3ccco3)s2)cc1,-112%,"2.91 µM [falling, partial curve]","0.082 µM [falling, full curve, poor fit]"
CCCCn1c(=O)[nH]c(=O)c2c1nc(-c1ccc(C(F)(F)F)cc1)n2C,80.8%,"0.206 µM [rising, partial curve, poor fit]","4.11 µM [rising, full curve]"
N#CC(C#N)=c1ccc2c(c1)N1C3=C(CCCC3)CC3CCCCC31N=2 (configuration not stated),-79.3%,,"29.1 µM [falling, single point]"
O=C(O)COc1ccc(-c2nc(-c3ccccc3)c(-c3ccccc3)[nH]2)cc1,11.8%,,
COc1ccc(C(=O)C2CCCN(Cc3ccc(Sc4nncn4C)o3)C2)cc1F (configuration not stated),15.9%,"18.4 µM [rising, partial curve, poor fit]",
COc1ccccc1NS(=O)(=O)c1cccc(C(=O)N/N=C/c2ccc(NC(C)=O)cc2)c1,123%,"6.51 µM [falling, single point]","6.51 µM [falling, single point]"
O=C(NCc1ccccc1Cl)C1CCN(S(=O)(=O)c2ccc(N3CCCC3=O)cc2)CC1,58.6%,,"23.1 µM [rising, single point]"
COCCCn1c(=O)c2ccccc2n(CC(=O)NC2CCCCC2)c1=O,21.8%,,
CC(=O)N1CCN(c2ccccc2NC(=O)c2cc3ccccc3o2)CC1,-38.9%,"32.6 µM [falling, partial curve]","25.9 µM [falling, single point]"
COc1cccc(NC(=O)Nc2nnc(N3CCCCC3C)s2)c1 (configuration not stated),4.33%,"5.17 µM [rising, single point]",
O=C(Cc1ccc(-n2c(=O)c3sccc3n(CC(=O)Nc3ccccc3F)c2=O)cc1)NCc1ccco1,,"0.651 µM [rising, single point]",
CC(CN1CCCCC1)OC(=O)c1ccc2c(c1)OCO2 (configuration not stated),15.9%,"6.51 µM [falling, single point]",
Cc1ccc(S(=O)(=O)NCC2CCC(C(=O)NCCCOC(C)C)CC2)cc1 (configuration not stated),-2.3%,"0.116 µM [rising, full curve, poor fit]",

# Single records, as listed above:
# O=C(Nc1ccc(NC(=O)c2cccs2)cc1)c1ccccc1 in the list: AC50 [1]: 5.17 µM [falling, full curve]; AC50 [2]: 6.51 µM [falling, single point]
# COc1ccccc1NS(=O)(=O)c1cccc(C(=O)N/N=C/c2ccc(NC(C)=O)cc2)c1 in the list: cell number change: 123%; AC50 [1]: 6.51 µM [falling, single point]; AC50 [2]: 6.51 µM [falling, single point]
